Laboratory results published in paper PMC9527247.
Results are given in words; binding and its absence hold for the method and conditions named. Binding seen in cells or lysates may run through a third protein. Some results given as binding are weak or reduced against the parent protein; the word gives no strength.

Amino acid sequences for entries named in this document (tags omitted).
UniProt Q06330: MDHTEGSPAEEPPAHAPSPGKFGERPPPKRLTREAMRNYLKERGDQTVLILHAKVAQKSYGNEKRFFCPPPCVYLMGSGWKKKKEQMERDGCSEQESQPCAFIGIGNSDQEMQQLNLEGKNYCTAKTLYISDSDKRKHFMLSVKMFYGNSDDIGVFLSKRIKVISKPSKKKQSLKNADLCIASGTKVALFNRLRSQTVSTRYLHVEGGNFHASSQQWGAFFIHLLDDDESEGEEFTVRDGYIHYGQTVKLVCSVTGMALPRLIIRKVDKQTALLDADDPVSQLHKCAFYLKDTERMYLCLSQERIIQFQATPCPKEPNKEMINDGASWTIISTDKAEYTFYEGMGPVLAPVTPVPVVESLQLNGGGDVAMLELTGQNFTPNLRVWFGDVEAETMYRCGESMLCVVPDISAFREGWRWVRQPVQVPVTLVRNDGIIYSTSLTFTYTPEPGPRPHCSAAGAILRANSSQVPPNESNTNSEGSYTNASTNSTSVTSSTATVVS
UniProt Q9Y294: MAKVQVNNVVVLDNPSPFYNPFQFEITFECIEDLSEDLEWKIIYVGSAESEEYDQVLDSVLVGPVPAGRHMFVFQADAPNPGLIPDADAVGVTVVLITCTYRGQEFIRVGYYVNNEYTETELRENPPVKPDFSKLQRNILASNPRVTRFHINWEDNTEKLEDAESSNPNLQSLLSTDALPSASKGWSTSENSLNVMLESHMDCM

Molecular target: recombination signal-binding immunoglobulin kappa J region (RBPJ) (human (endogenous in K562 and MEG01)) (UniProt Q06330)
Assay: co-IP; protein extracts of K562 and MEG01 cells incubated with 5 ug of antibody; Pierce Co-Immunoprecipitation Kit; immunoblot with anti-ASF1A and anti-RBPJ

For “ASF1A (anti-silencing function 1 A) (from UniProt Q9Y294 1-204)”, the binding was “binds”.
